# The list is a part of this screen's results and no random one: it gathers tests that were run many times, whatever their T/C, doses with no T/C, and many T/C values between a quarter and a half above the control. Further doses and runs are listed elsewhere. T/C gives the treated animals as a percentage of the vehicle group. Some entries give survivors of the animals treated and no T/C: the source files T/C as zero there, which appears to mark a toxic dose or a test without result, not a measured value. Some survivor counts are full or nearly so, which does not show that the dose was tolerated: the source hardly ever lists a survival T/C far under the control, and the zero likely stands for such cases as well. Counts of survivors are from the toxicity check (mostly the fifth day) where no day follows; animals may have died later. Schedule codes are those of the source, taken here to give the interval after Q, in days (D) or hours (H), and the number of doses after X. Some schedules carry Z or #; the key to these is not given. Where survival is the endpoint, the PubChem record calls one and a half times the control and up active, and a quarter to a half above the control has no call in these data; cut-offs in other NCI protocols can differ. Some entries were tested several times; the results are listed from low to high. Some T/C values are followed by the survivors on the day toxicity was checked, most often the fifth; without a count, all were alive then.
# Test system: BDF1 mice, P388 leukemia ip, median survival T/C
# Assay: NCI In Vivo Anticancer Drug Screen. Data for tumor model P388 Leukemia (intraperitoneal) in B6D2F1 (BDF1) mice
# Conditions: T/C endpoint: median survival time, higher T/C = longer survival
# Procedure: The antitumor activity of compounds was measured in mice bearing transplantable tumors. Survival or tumor size were measured and the results are expressed as the measurement made in the treated group (T) divided by the measurement made in the vehicle treated control group (C). The tumor model used in this assay is P388 Leukemia (intraperitoneal) in B6D2F1 (BDF1) mice
# [1] = dose: 400.0 mg/kg/injection, schedule: Q01DX009 (ip), vehicle: saline
# [2] = dose: 200.0 mg/kg/injection, schedule: Q01DX009 (ip), vehicle: saline
# [3] = dose: 50.0 mg/kg/injection, schedule: Q04DX003 (ip), vehicle: saline
smiles,measurement,setting,value
NC1C=CC(CCC(N)C(=O)O)C=C1 (configuration not stated),T/C,"dose: 50.0 mg/kg/injection, schedule: Q01DX009 (ip), vehicle: saline",126 % of control
O=C(O)c1ccc(N2C(=O)c3ccccc3C2=O)cc1[N+](=O)[O-],survivor count,[1],4 of 6
CCN(CC)CCCC(C)Nc1cc(C)nc2cc(N(C)C)ccc12 (configuration not stated),T/C,"dose: 25.0 mg/kg/injection, schedule: Q01DX009 (ip), vehicle: Klucel (hydroxypropylcellulose) (HPC)",132 % of control
CCOC(=O)c1[nH]cnc1/N=N/N(C)C,survivor count,"dose: 40.0 mg/kg/injection, schedule: Q01DX009 (ip), vehicle: saline with Tween-80",5 of 6
CC1(C)N=C(N)N=C(N)N1c1ccc(OCC(=O)Nc2ccc(S(=O)(=O)F)cc2)c(Cl)c1,T/C,"dose: 66.0 mg/kg/injection, schedule: Q04DX003 (ip), vehicle: saline",131 % of control
same,survivor count,[2],1 of 6
same,survivor count,"dose: 400.0 mg/kg/injection, schedule: Q01DX008 (ip), vehicle: saline",4 of 6
CCCCCCCCCC(=O)CCCCCCC,T/C,"dose: 200.0 mg/kg/injection, schedule: Q04DX003 (ip), vehicle: other",125 % of control
same,T/C,"dose: 266.0 mg/kg/injection, schedule: Q04DX003 (ip), vehicle: other",127 % of control
same,T/C,"dose: 400.0 mg/kg/injection, schedule: Q04DX003 (ip), vehicle: other",130 % of control
O=C(Oc1ccccc1)c1cc(O)c(O)c(O)c1,T/C,"dose: 200.0 mg/kg/injection, schedule: Q01DX005 (ip), vehicle: saline with Tween-80",127 % of control
Cc1ccc(N(OC(=O)c2ccccc2)C(C)(C)C)cc1,survivor count,"dose: 200.0 mg/kg/injection, schedule: Q04DX002 (ip), vehicle: saline with Tween-80",6 of 6
same,survivor count,"dose: 400.0 mg/kg/injection, schedule: Q04DX002 (ip), vehicle: saline with Tween-80",1 of 6
COc1cc2c(cc1OC)C(=O)N(C)CC2,survivor count,"dose: 400.0 mg/kg/injection, schedule: Q01DX009 (ip), vehicle: water",0 of 6
CCN(C(=S)Nc1cccc(OC)c1)c1ccccc1,survivor count,"dose: 400.0 mg/kg/injection, schedule: Q01DX009 (ip), vehicle: saline with Tween-80",2 of 6
O=[N+]([O-])c1ccc(/C=N/c2nccs2)o1,T/C,[3],132 % of control
CN(C)c1ccc(C2N(Cc3ccccc3)CCC3CCCCN32)cc1 (configuration not stated),survivor count,"dose: 200.0 mg/kg/injection, schedule: Q01DX009 (ip), vehicle: saline with Tween-80",6 of 6
CC(=O)OCC1OC(O)C(NC(=O)C(F)(F)F)C(OC(C)=O)C1OC(C)=O (configuration not stated),survivor count,"dose: 25.0 mg/kg/injection, schedule: Q04DX003 (ip), vehicle: saline",3 of 6
same,survivor count,[3],0 of 6
same,survivor count,"dose: 50.0 mg/kg/injection, schedule: Q## X003 (ip), vehicle: saline",0 of 6
CN(C)N=Nc1cn(C2OC(CO)C(O)C2O)c(=O)[nH]c1=O (configuration not stated),T/C,"dose: 37.5 mg/kg/injection, schedule: Q01DX009 (ip), vehicle: saline",140 % of control
same,T/C,"dose: 75.0 mg/kg/injection, schedule: Q01DX009 (ip), vehicle: saline",125 % of control
same,T/C,"dose: 100.0 mg/kg/injection, schedule: Q01DX009 (ip), vehicle: saline",125 % of control
same,T/C,"dose: 150.0 mg/kg/injection, schedule: Q01DX009 (ip), vehicle: saline",145 % of control
same,T/C,[2],141 % of control
same,T/C,"dose: 300.0 mg/kg/injection, schedule: Q01DX009 (ip), vehicle: saline","91, 140, 180, 225, 300 % of control"
same,survivor count,[1],5 of 6
same,survivor count,"dose: 600.0 mg/kg/injection, schedule: Q01DX009 (ip), vehicle: saline",1 of 6
CC1=C/C(O)CC(=O)Cc2nc(co2)C(=O)N2CCC=C2C(=O)OC(C(C)C)C(C)/C=C\C(=O)NC/C=C\1 (configuration not stated),T/C,"dose: 200.0 mg/kg/injection, schedule: Q01DX009 (ip), vehicle: Klucel (hydroxypropylcellulose) (HPC)",136 % of control
same,T/C,"dose: 400.0 mg/kg/injection, schedule: Q01DX009 (ip), vehicle: Klucel (hydroxypropylcellulose) (HPC)",145 % of control
c1ccc2c(Nc3ccc(C4=NCCN4)cc3)nnc(Nc3ccc(C4=NCCN4)cc3)c2c1,T/C,"dose: 100.0 mg/kg/injection, schedule: Q04DX003 (ip), vehicle: saline with Tween-80",140 % of control [4 of 6 alive]
same,survivor count,"dose: 150.0 mg/kg/injection, schedule: Q04DX003 (ip), vehicle: saline with Tween-80",0 of 6

# From PubChem BioAssay AID328 (DTP/NCI, 2004)
